Reference: publication PMC6394301, “Evaluation of the anticancer potential of a sulphonamide carbonic anhydrase IX inhibitor on cervical cancer cells” (Journal of Enzyme Inhibition and Medicinal Chemistry, 2019)

Columns and labels:
[1] = test system: HeLa cells; assay: WST-1 cell viability assay, HeLa; type: cell-based; conditions: Homo sapiens
Protocol: (§1) HeLa and PNT1-A were cultured in RPMI-1640 medium supplemented with 10% Foetal bovine serum (FBS) and penicillin (100 U/mL)/streptomycin ([…]), L-glutamine (2 mM) at 37 °C in a 5% CO2 humidified atmosphere. Since it is an unstable amino acid, the medium was supplemented with L-glutamine immediately prior.
(§2) WST-1 Cell Proliferation test, a product of the Roche Company is a colourimetric assay based on the cleavage of a tetrazolium salt by mitochondrial dehydrogenases to generate formazan in living cells. This assay is simple because only 10 μL of WST-1 reactant is added to 100 μL media on a 96-well plate. The cells were counted with a haemocytometer immediately before the subsequent procedures. The HeLa and PNT1A cells were used for seeding, with 5 × 10^3 cells per well, and then incubated overnight in a humidified atmosphere (37 °C with 5% CO2).
(§3) The next day, WST-1 is added to cells treated with S-1 as a cytotoxic reagent and the incubation is continued for an additional 1−2 h in a humidified atmosphere. One of the advantages of the WST-1 test is that colour change (yellow) can be seen with the naked eye.
After incubation, the plate was shaken well for 1 min. The absorbance is then measured at 450 nm versus a 650 nm reference by using a plate reader (M5, Spectra MAX) and SoftMax Pro software from Molecular Devices to compare experimental samples to controls.
IC50 is a measure used to estimate the potency of a material that inhibits a specific biological or biochemical function. […]
We determined the cell viability of CC cell line HeLa grown in 96-well plates for 24, 48, 72 h and treated with increasing concentrations (0, 2.5, 5, 10, 25, 50, 100, 200 μM) of S-1. Cell viability was evaluated with colourimetric WST-1 assay as described previously tested on the splitting of the tetrazolium salt by mitochondria dehydrogenases in viable cell. […] The number of viable cells was then quantified using trypan blue exclusion. […]

[2] = test system: PNT1-A cells; assay: WST-1 cell viability assay, PNT1-A; type: cell-based; conditions: Homo sapiens, PNT1A, PNT1-A 24 h
Protocol: as §1, §2, §3
After incubation, the plate was shaken well for 1 min. The absorbance is then measured at 450 nm versus a 650 nm reference by using a plate reader (M5, Spectra MAX) and SoftMax Pro software from Molecular Devices to compare experimental samples to controls. […]

CC(=O)Nc1nnc(S(N)(=O)=O)s1 [AAZ, Acetazolamide]
IC50 ([1]; HeLa 24 h): 52.3 µM | IC50 ([1]; HeLa 48 h): 45.3 µM | IC50 ([1]; HeLa 72 h): 54.3 µM | IC50 [2]: 72.3 µM
